Results are given in words; binding and its absence hold for the method and conditions named. Some results given as binding are weak or reduced against the parent protein; the word gives no strength.
What was measured:
[1] = molecular target: T1, human mature bone morphogenic protein 5 (human, UniProt P22003 340-454); assay: SPR, VHH on chip, BMP injected
T1 construct: Often printed as BMPS in the text; also called BMP5; BMPS (so in the source)
T1 sequence: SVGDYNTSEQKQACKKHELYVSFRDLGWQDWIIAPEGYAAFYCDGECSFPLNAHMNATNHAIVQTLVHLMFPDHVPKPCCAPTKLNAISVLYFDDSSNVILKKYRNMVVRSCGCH
Experimental: (§1) Serial dilutions (2.0-10 μg/ml) of purified VHHs were spotted on an amine-specific SensEye gold-film gel-type SPRchip (Ssens), using a Continuous Flow Microspotter (Wasatch Microfluidics, Salt Lake City, Utah, United States) as described (Lokate et al., 2007). BMP binding was analyzed on an IBIS MX96 (IBIS Technologies, Enschede, The Netherlands) instrument by performing injections with dilution series (0.05-2.0 μg/ml) of recombinant BMPs on the VHH-coated chip. In each injection, BMPs were injected and incubated for 8 min, followed by 15 min thorough washing with binding buffer (PBS+0.05% Tween20+0.05% sodium azide) to measure dissociation. Epitope binning was done by injecting VHH dilutions (2.0 μg/ml) over the chip, immediately after the dissociation step. Injections with blank binding buffer were used as reference. After each concatenated injection, the chip was regenerated with 10mM glycine-HCl, pH 2.0. Experimental data were processed with SPRintX software (IBIS Technologies) and kinetic parameters were determined using Scrubber2 software (BioLogic Software, Campbell, ACT, Australia). Binding constants were obtained by global fitting to a one-site binding model.

Amino acid sequences for entries named in this document (tags omitted). A change or cut given only in a name is not applied to a line headed by its entry.
UniProt P12643: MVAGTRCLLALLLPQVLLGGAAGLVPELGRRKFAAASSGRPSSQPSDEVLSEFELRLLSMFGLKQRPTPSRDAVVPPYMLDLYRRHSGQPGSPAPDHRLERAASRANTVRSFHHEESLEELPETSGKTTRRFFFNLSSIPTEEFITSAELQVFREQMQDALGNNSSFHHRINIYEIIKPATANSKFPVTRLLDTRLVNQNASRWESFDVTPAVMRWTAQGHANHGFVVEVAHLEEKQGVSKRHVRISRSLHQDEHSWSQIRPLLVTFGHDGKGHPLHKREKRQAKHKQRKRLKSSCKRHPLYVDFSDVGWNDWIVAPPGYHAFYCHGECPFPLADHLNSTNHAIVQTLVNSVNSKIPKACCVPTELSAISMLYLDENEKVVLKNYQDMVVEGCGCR

[2] = molecular target: T2, human mature bone morphogenic protein 6 (human, UniProt P22004 375-513); assay: SPR (IBIS), VHH spotted on the chip, BMP6 injected
T2 construct: also called BMP6; BMP-6
T2 sequence: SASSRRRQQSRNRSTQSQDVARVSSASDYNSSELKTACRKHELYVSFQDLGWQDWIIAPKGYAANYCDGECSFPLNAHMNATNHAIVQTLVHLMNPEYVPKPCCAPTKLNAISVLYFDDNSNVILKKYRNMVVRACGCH

[3] = molecular target: T1, human mature bone morphogenic protein 5; assay: SPR (IBIS), VHH spotted on the chip, BMP5 injected
[4] = molecular target: T1, human mature bone morphogenic protein 5; assay: summary of SPR results
[5] = molecular target: T3, human mature bone morphogenic protein 4 (human) (UniProt P12644); assay: SPR sandwich cross-binding, C8 or E7 on chip
T3 sequence: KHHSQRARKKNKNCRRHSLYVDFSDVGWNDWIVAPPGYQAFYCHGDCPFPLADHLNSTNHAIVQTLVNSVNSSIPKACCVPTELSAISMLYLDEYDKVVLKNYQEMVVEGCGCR

[6] = molecular target: T4, mature bone morphogenic protein 2 (human, UniProt P12643 283-396); assay: SPR (IBIS), VHH spotted on the chip, BMP2 injected
Experimental: In a first set of experiments, controls and VHHs (either as monomers or dimers) were coupled to SPR chips and the measurement of BMP affinities was obtained by injecting the different BMPs to the plate.
as §1

[7] = molecular target: T3, human mature bone morphogenic protein 4 (human); assay: western blot of unreduced recombinant BMP, C4C4 as primary antibody
[8] = molecular target: T3, human mature bone morphogenic protein 4 (human); assay: summary
[9] = molecular target: T4, mature bone morphogenic protein 2; assay: SPR, VHH on chip, BMP injected
[10] = molecular target: T3, human mature bone morphogenic protein 4 (human); assay: SPR, VHH on chip, BMP injected
[11] = molecular target: T3, human mature bone morphogenic protein 4 (human); assay: western blot, unreduced mature recombinant BMPs
[12] = molecular target: T3, human mature bone morphogenic protein 4 (human); assay: SPR (IBIS), VHH spotted on the chip, BMP4 injected
[13] = molecular target: T3, human mature bone morphogenic protein 4 (human); assay: SPR sandwich (epitope binning): BMP4 captured on the spotted molecule, then C4C4 injected [B, F]
[14] = molecular target: T5, human mature bone morphogenic protein 7 (human, UniProt P18075 293-431); assay: SPR, VHH on chip, BMP injected
T5 construct: also called BMP7; BMP-7
T5 sequence: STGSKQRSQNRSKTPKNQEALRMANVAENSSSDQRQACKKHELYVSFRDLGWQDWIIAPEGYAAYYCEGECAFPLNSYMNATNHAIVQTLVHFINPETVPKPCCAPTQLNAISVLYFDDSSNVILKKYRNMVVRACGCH
Experimental: as §1

[15] = molecular target: T4, mature bone morphogenic protein 2; assay: summary
[16] = molecular target: T6, human mature bone morphogenic protein 4 (human, UniProt P12644 295-408); assay: summary
T6 sequence: T3 sequence

[17] = molecular target: T6, human mature bone morphogenic protein 4; assay: SPR, VHH on chip, BMP injected
[18] = molecular target: T4, mature bone morphogenic protein 2; assay: western blot, unreduced mature recombinant BMPs
[19] = molecular target: T6, human mature bone morphogenic protein 4; assay: western blot, unreduced mature recombinant BMPs
[20] = molecular target: T6, human mature bone morphogenic protein 4; assay: SPR (IBIS), VHH spotted on the chip, BMP4 injected
[21] = molecular target: T4, mature bone morphogenic protein 2; assay: western blot of unreduced recombinant BMP, C8C8 as primary antibody
[22] = molecular target: T6, human mature bone morphogenic protein 4; assay: as above

Measured: binding

B1: C8E7 hetero-bihead (designed binder)
chain: EVQLVESGGGLVQAGGSLRLSCAASGRTFRINDMGWYRQAPGKSRDMVARITSGGNTNYADSVKGRFTISRDNAKNTVYLQMNSLKPEDTAVYYCNADGLRFDSTRYRPFDSWGQGTQVTVSSGGGGSGGGGSEVQLVESGGGLVQAGGSLRLSCAASGSIRGFVAMAWYRQAPGKQREWVATVTNGGTLYGDSVKGRFTGSRDNAKNTVYLQMNSLKPEDTAVYYCALRQIGASGYDYWGQGTQVTVSS
binds: [1] | [2] | [3]

B2: VHH E7 (VHH)
VHH: EVQLVESGGGLVQAGGSLRLSCAASGSIRGFVAMAWYRQAPGKQREWVATVTNGGTLYGDSVKGRFTGSRDNAKNTVYLQMNSLKPEDTAVYYCALRQIGASGYDYWGQGTQVTVSS
notes: also called E7 monomer
binds: [1] | [4] | [3]

B3: C4C4 homo-bihead (designed binder)
chain: EVQLVESGGGLVQAGGSLRLSCAASGRTFSTYAMGWFRQAPGKEREFVAAISKGGGITYYSDSVRGRFTISKENAKNTVYLQMNSLKPEDTAVYYCAADPVSSVAKSPVAYPYWGQGTQVTVSSGGGGSGGGGSEVQLVESGGGLVQAGGSLRLSCAASGRTFSTYAMGWFRQAPGKEREFVAAISKGGGITYYSDSVRGRFTISKENAKNTVYLQMNSLKPEDTAVYYCAADPVSSVAKSPVAYPYWGQGTQVTVSS
notes: also called C4C4 dimer
binds: [5] | [6] | [7] | [8] | [9] | [10] | [11] | [12] | [13]

B4: C8C8 homo-bihead (designed binder)
chain: EVQLVESGGGLVQAGGSLRLSCAASGRTFRINDMGWYRQAPGKSRDMVARITSGGNTNYADSVKGRFTISRDNAKNTVYLQMNSLKPEDTAVYYCNADGLRFDSTRYRPFDSWGQGTQVTVSSGGGGSGGGGSEVQLVESGGGLVQAGGSLRLSCAASGRTFRINDMGWYRQAPGKSRDMVARITSGGNTNYADSVKGRFTISRDNAKNTVYLQMNSLKPEDTAVYYCNADGLRFDSTRYRPFDSWGQGTQVTVSS
binds: [6] | [14] | [15] | [16] | [9] | [17] | [18] | [19] | [20] | [21] | [22]
